According to publication PMC6859486:
No constants are given. Whether binding was seen depends on the method and setting. Binding seen in cells or lysates may run through a third protein. These calls come from enrichment with a bait or labelling near it, and not all partners need be listed. For some of these results: No binding means not detected with the bait.

The chains behind the UniProt entries cited, without tags or fusion partners. Residues count along the entry.
UniProt Q8R035, residues 30-206: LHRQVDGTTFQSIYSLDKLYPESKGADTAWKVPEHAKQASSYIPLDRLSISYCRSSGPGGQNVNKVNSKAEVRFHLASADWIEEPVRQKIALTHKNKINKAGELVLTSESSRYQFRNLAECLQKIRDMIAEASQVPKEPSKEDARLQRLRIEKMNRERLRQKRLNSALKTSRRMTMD
UniProt P0DN34: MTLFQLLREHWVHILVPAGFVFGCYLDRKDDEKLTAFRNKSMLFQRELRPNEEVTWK
UniProt Q8C167: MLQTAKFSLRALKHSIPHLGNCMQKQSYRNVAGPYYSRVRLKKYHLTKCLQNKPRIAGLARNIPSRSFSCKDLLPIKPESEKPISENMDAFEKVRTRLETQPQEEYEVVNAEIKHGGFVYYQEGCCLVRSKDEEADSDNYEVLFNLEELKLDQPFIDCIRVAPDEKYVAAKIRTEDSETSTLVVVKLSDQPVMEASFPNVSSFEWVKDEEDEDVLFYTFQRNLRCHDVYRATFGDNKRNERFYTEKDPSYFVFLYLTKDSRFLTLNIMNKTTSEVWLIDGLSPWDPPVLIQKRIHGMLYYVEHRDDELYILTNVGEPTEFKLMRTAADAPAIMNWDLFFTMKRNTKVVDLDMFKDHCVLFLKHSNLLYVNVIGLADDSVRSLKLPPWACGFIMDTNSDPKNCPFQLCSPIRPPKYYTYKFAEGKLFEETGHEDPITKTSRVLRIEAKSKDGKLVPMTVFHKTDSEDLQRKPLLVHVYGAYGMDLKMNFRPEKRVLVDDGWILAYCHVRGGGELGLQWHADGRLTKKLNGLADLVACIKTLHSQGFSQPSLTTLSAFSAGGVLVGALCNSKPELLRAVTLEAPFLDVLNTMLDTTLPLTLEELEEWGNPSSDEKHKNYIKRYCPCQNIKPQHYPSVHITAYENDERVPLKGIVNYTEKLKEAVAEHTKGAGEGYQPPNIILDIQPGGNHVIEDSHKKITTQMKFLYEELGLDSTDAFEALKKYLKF
UniProt Q3V3R1, residues 32-977: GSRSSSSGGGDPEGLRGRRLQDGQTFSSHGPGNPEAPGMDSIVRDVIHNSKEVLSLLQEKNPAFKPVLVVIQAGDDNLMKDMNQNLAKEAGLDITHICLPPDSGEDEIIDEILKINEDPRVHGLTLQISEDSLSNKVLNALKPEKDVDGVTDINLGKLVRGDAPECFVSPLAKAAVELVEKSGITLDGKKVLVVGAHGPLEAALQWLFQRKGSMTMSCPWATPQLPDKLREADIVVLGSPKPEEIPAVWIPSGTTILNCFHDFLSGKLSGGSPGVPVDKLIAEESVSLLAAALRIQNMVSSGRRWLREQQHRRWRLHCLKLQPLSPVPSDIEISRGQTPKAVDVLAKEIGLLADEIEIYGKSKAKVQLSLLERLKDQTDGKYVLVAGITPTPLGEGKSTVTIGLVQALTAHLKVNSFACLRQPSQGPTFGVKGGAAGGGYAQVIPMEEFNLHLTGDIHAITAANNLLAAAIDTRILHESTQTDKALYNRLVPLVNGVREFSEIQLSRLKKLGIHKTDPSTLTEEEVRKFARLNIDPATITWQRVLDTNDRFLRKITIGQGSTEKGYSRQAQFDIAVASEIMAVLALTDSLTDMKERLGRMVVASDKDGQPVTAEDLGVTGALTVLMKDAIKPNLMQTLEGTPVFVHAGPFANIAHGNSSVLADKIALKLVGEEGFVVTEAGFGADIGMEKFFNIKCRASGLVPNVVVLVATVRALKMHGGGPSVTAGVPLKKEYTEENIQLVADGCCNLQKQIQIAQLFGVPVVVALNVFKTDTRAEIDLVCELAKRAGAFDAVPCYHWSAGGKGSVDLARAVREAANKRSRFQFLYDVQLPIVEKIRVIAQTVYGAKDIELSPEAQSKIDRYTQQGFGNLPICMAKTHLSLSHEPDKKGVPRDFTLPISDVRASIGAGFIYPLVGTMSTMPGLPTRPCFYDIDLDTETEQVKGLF
UniProt Q9ERU3: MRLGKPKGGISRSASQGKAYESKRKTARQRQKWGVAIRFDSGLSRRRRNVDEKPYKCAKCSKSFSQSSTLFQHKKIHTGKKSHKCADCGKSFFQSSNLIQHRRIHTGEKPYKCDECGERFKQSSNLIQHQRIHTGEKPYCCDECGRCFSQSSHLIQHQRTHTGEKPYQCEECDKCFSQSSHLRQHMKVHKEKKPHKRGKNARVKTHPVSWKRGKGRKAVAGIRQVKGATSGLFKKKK
UniProt Q8C2E4: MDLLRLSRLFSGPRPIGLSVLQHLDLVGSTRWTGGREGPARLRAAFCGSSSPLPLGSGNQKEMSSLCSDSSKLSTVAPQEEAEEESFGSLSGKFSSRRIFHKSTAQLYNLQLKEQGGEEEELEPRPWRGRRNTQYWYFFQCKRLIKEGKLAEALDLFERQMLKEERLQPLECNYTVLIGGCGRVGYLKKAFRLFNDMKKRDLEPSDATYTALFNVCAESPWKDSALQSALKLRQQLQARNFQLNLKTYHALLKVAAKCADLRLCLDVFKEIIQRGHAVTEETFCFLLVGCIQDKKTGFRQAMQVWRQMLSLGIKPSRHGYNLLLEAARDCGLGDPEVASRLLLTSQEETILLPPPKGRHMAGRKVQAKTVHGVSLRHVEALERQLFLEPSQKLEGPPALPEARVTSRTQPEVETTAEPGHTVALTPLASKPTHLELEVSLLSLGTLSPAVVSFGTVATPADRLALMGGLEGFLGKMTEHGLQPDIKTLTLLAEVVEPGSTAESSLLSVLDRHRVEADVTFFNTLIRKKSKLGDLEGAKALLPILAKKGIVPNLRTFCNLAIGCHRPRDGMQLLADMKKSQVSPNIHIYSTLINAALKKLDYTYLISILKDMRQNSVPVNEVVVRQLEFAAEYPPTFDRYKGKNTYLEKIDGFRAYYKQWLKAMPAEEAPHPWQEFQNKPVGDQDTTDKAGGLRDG

B1: neugrin (protein, UniProt Q99KS2 19-293)
chain: RCGFASQVMAGPGSVSCEPDPDSDWEPEERELQEVESALKRQKKAMRFQKIRRQMEAPGAPPRTLTWEAMEQIRYLHKEFAESWSVPRLAEGFDVSTDVIRRVLKSKFVPTLEQKLRQDQKVLKKAGFTREIGQLPVSEDTLKALSAGRSVSGLLMAGDEVSSKSQNHSTALKVAKSHPHSTDAQKKREGRDKRIQVLEESLVPATTALGHQRELQKSATSDSEATGRAGSDTLPSAVLLEELKPGEPGDQSFSSKVVQRGHDFFDSNGNFLYRI
B2: G-rich RNA sequence binding factor 1 (protein, UniProt Q8C5Q4 117-479)
chain: SQESKTTYLEDLPPLPEYELSPSKLGDEVDDVYLIRAQGLPWSCTVEDVLNFFSDCRIRNSENGIHFLLNRDGKRRGDALIEMESEQDVQKALEKHRMYMGQRYVEVYEINNEDVDALMKSLQVKPSPVLSDGVVRLRGLPYSCNEKDIVDFFAGLNIVDITFVMDYRGRRKTGEAYVQFEEPEMANQALLKHREEIGNRYIEIFPSRRNEVRTHVGSHKGKKMTSSPPTKYITEPEVVFEEHEVNEDIRPMTAFESDKEIELPKEMSEKLPEAVDFGTLPSLHFVHMRGLPFQANAQDIINFFAPLKPVRITMEYSSSGKATGEADVHFDTHEDAVAAMLKDRSHVQHRYIELFLNSCPKGK
B3: nitric oxide-associated protein 1 (mouse, endogenous) (protein, UniProt Q9JJG9 1-693)
chain: MLPARLACGLLCGLRRGPAPAAACYGPARWLLEGKCEVPIRQRASSLGRRVPPSSTATEDYAEGPDTEERFLFPEYVPERTPEEQVRELQELRELQQLQQEKERERLQQREERLQQKLRAGFRTLPVPEFPDASVPPSGIYCSGCGAELHCQHPGLPGYLPEEKFRDAAQAEGGPARTVCQRCWLLVHHGRALRLQVSRDQYLELVSAALRRPGPALVLYMVNLLDLPDALLPDLPKLVGPKQLIVLGNKVDLLPQDAPGYLKRLRKRLWDDCIRAGLVVAPGHQGPQYPAGDEPLEEIKNQNPSSRSRTVVKDVRLISAKTGYGVEEMISALQRSWRYRGDVYLVGTTNAGKSTLFNTLLESDYCTAKGSEAIDRATISPWPGTTLNLLKFPICNPTPYRMFKRQRRLQEDATKAEEDLSEEEQSQLNQLKKHGYIVGRVGRTFSYSREQDEVPFEFDADSLAFDMGSEPVVSVCKSTKQIELTPEDVKDAHWFYDTPGITKESCILNLLTEKEINTVLPTHSIIPRTFVLKPGMVLFLGGIARIDFLQGNQSAWFTVVASNFLPVHITSLDKADALYEKHAGHELLLVPMGGKERMAQFPPLVAEDITLKGGGKFEAVADIKFSSAGWVAVTPYSEGTLHLRGHTPEGTALTVHPPVLPYIVNVKGQRMKKSVAYKTKKPPSLVHNLKKHR
B4: complex I assembly factor TIMMDC1 (protein, UniProt Q8BUY5 1-285)
chain: MGAPPPAPRSRLCGAWGPFPRVFAAGAVAADSPGFVEDREQRSGVSDPGSLESGWDRLRQLFAKDEQQRFSKEIDYIYRAAVSAGIIGWAYGGIPAFIYAKKRYIEQSQAEIYHNRFDAVQSAHRAATRGFIRYGWRWSWRTAVFVTIFNTVNTGLTVYRNKDAMSHFAIAGAVTGGLFRINLGVRGLVAGSIIGALLGAPMGSLLMALEKYSGETVQERRQKEWKALHEQRLEEWRSSLQVTELLPMEIESGLEKIQPEGDAQRIEELLSLPRNPSSPHQQSKH
B5: cytochrome c oxidase assembly factor COA3 (protein, UniProt Q9D2R6 1-108)
chain: MAAPGAGDPLNAKNGNAPFAQRIDPSREKLTPAQLQFMRQVQLAQWQKTLPQRRTRNIMTGLGIGALVLAIYGYTFYSVAQERFLDELEDEAKAARARALERERASGP
B6: cytochrome c oxidase assembly factor COX18 (protein, UniProt Q8VC74 64-331)
chain: AEEVLLGAQEATGLPWWSNIILSTVALRGAVTLPLAAYQHYILAKVENLQPEIKDIAKRLNQEVAVCARQFGWSKRVARLTYLKNMRRLISELYVRDNCHPFKATVLVWVQLPMWVFISVALRNLSTGATHSDGISVQEQLAAGGTLWFPDLTAVDSTWILPVSVGVVNLLIVEIFALQKIGTSRFQMYVTNFVRAVSVLMIPVAATVPSALVLYWLCSSLMGLAQNLLLRSPGFRQLCRIPPSKSDSETPYRDLSAAFCAKFLSRKR
B7: cytochrome c oxidase assembly factor COX20 (protein, UniProt Q9D7J4 1-117)
chain: MAAAPEPHETEKKPFKLLGILDVENTPCARESILYGSLGSIVTGLGHFLVTSRIRRSCDVGVGGFILVTLGCWFHCRYNFAKQRIQERIAREGIKNKILYESTHLDPERKMKTNNSS
B8: cytochrome c oxidase assembly factor TMEM177 (protein, UniProt Q8BPE4 1-311)
chain: MAGPLWRAAAFIQRHRTSLLVGSCAGLFGVQISFHLFPDPIVQWLYQYWPQGQPAPLSPHLWSLFQEVLKDIGVPSGHCYKPFTAFTFQPVSAGFPRLPAGAVVGIPAIFLGGPVTNIEHSVIIHGQRVDWQSPAGTRLRDALTMSHNAQKFALAKEVVYLESGVAALQTLPAPACLAGTWAISVGAKHALGLYGGPMSLRTAFNLVAIVVGYVAYTFSKDSLTLALEGWLDRRTASLSAAYVQGGVEFYEKILSGNLALRSLLGRQGEKLYTPSGNIVPRHWFRINHLPYTTRRDSLQQMWRATVSPGRF
B9: NDUFAF4 (protein, UniProt Q9D1H6 1-173)
chain: MGARVTRALRNFNVEKRAEREISKRKPSMAPKHPSTRDLLQEHRSQYPEIEEVVSKKDNKLLSLLRDVYVDSKDPVPALPVKVEPRQEPKEFRLPIGNHFDKNITDIPKGKITVVEALTLLNNHKLSPETWTAEKIAQEYYLELKDVNSLLKYFVTFEVKILPPEDRKAIQSK
B10: OCIAD1 (protein, UniProt Q9CRD0 1-247)
chain: MNGRADFREPNAQVSRPIPDIGGGYIPTEEEWRLFAECHEECFWFRSVPLAATSMLITQGLISKGILSSHPKYGSIPKLLFACIVGYFAGKLSYVKTCQEKFKKLENSPLGEALRSGELRRSSPPGHYTQKPKFDSNVSGQSSFGTSPAADNIEKEALPRYEPIPFSASMNESTPTGITDHIAQGPEPNLEESPKRKGVTYEELRSKNRESYGVTLPHKTDPSVRPMQERVPKKEVKVNKYGDTWDE
B11: retinol dehydrogenase 13 (protein, UniProt Q8CEE7 1-334)
chain: MSRFLLPVSVVGTVIGGTVLLKDYVAGGACPSKATIPGKTVIVTGANTGIGKQTALELAKRGGNVILACRDMEKCEVAAKDIRGETLNPRVRAERLDLASLKSIREFARKVIKEEERVDILVNNAAVMRCPHWTTEDGFEMQFGVNYLGHFLLTNLLLDKLKASAPSRIINLSSLAHVAGHIDFEDLNWQMKKYDTKAAYCQSKLAVVLFTKELSHRLQGSGVTVNALHPGVARTELGRHTGMHNSAFSGFMLGPFFWLLFKSPQLAAQPSTYLAVAEELENVSGKYFDGLREKAPSPEAEDEEVARRLWTESARLVGLAMAHGSPGRGHAIPR
B12: small integral membrane protein 4 (protein, UniProt Q8C1Q6 1-80)
chain: MFSRAQVRRALQRVPGKQRFGIYRFLPFFFVLGGAMEWIMIKVRVGQETFYDVYRRKASERQYQRRLEDTSETNLHKLIK
B13: Era-like 12S rRNA chaperone 1 (protein, UniProt Q9CZU4 21-437)
chain: VGSHAGREWLAPPGCLLGNQARCVSCVVGSTFSGPLLASASSRYGQDSALDRILGFSQPDSSLVPSVPAVSVHRDEQNLLLVHTPDMPENPRVLRVVLLGAPNAGKSTLSNQLLGRKVFPVSKKVHTTRCQALGVITEKETQVILLDTPGIISPVKQKRHHLERSLLEDPWTSMESADLVVVLVDVSDKWTRSRLNPQVLQCLTKFSQVPSILVLNKVDCLKQKSVLLELTAALTEGVVNGKKLNIKQALRSRSSTHCPGPETEGPNAHSVRNPQRIGWPYFQEIFMLSALNNKDVNTLKQYLLTQAQPGPWEFHSGVLTSQTPEEICANKIREKLLEYLPEEVPYGVQQKTVIWEEGPSGELVIQQNLLVPKESHVRILIGQKGLLISQIAQEVGRDLMDIFHCDVLIRLSVKLLK
B14: mitochondrial ribosome-binding factor A (protein, UniProt Q6P3B9 42-350)
chain: GSKNLLKKFASKTRKKFWYEGPSLGSHLTPRPSKHEFLTKTTSKKTRKEDSIRLRVLNGLLYKSLTELLCTPQVSQEVYDLNVELSKVSVTSDFSACRVYWKTGVSAEQNKHTESVLQRSAAYMRHLLISQQTLRNVPPIVFVQDKRDLVLAEVDRLLAEADFGPPDERDDLDGLRNADAQVPHDSPEPAAHPNLCGIDHEALNKQIMEYKRKKERGLQCQSLAPPSGREQAPEPTRLLRKREKVRSRWQHRDASPRSFLLGEEDEDEDSSTEWECHAHEAEDDDDHQEEELGADRGAQRGLCGKREQG
B15: pseudouridine synthase-like 1 (mouse, endogenous) (protein, UniProt A2ADA5 1-291)
chain: MGSCGAVGSVRARYLVFLQYLGTDFNGVAAVRGNPRAVGVLNFLEEAAKRLNSVDPVRFTISSRTDAGVHALSNAAHLDIQRRPGQSPFSPEVVAKALNTHLKHPAIRVLKAFRVPNDFHARHAATSRTYQYRLATGCSWPNQLPVFEQNVCWALQTEYLDMAAMQEAAQHLLGTHDFSAFQSAGSPVTNTVRTLRRVSVSPGPASPFVLPEGSRRLQFWTLEFESQSFLYRQVRRMTAVLVAVGLGILAPTQVKVILESQDPLGKYQARVAPARGLFLKSVLYDNFGPTS
B16: mitochondrial translation initiation factor IF3mt (protein, UniProt Q9CZD5 95-276)
chain: GMMHRADVIRLMNKQDLRLVQRNTSSEPPEYQLMTGEQIHQERLKLREQEKAKPKTGPTMTKELVFSSNIGQHDLDTKSKQIQQWIEKKYHVQVTIKRRKDAEQSEEETEEIFNQILQTMPDIATFSSRPKAIRGGTASMCVFRHLSKKEEKAYRESQESQRRDTLSKDDDGNSKESDVVCQ
B17: MTHFD2 (enzyme, UniProt P18155 36-350)
chain: EAVVISGRKLAQQIKQEVQQEVEEWVASGNKRPHLSVILVGDNPASHSYVLNKTRAAAEVGINSETIVKPASVSEEELLNSIRKLNNDENVDGLLVQLPLPEHIDERKVCNAVSPDKDVDGFHVINVGRMCLDQYSMLPATPWGVWEIIKRTGIPTLGKNVVVAGRSKNVGMPIAMLLHTDGAHERPGGDATVTISHRYTPKEQLKKHTILADIVISAAGIPNLITADMIKEGAAVIDVGINRVQDPVTAKPKLVGDVDFEGVKKKAGYITPVPGGVGPMTVAMLMKNTIIAAKKVLRPEELEVFKSKQRGVATN

How the values were obtained:
[1] = target: mL62-FLAG (mouse) (UniProt Q8R035); assay: affinity purification with mass spectrometry; mL62-FLAG co-immunoprecipitated on anti-FLAG M2 beads from 1% digitonin lysates of heart, liver and kidney mitochondria of MitoRibo-Tag mice, WT mice as control; 10 mM Tris-HCl pH 7.5, 100 mM KCl, 20 mM MgCl2; on-bead trypsin elution; LFQ-MS/MS
[2] = target: mL62-FLAG (mouse) (UniProt Q8R035); assay: affinity purification with mass spectrometry; mL62-FLAG co-immunoprecipitated from digitonin lysates of heart mitochondria of 18- to 20-week-old Mterf4 knockout MitoRibo-Tag mice (L/L, +/Cre, T/T) versus control MitoRibo-Tag mice (L/L, +/+, T/T); LFQ-MS/MS

Row | Molecule | binding [1] | binding [2]
1 | NDUFB1 (from UniProt P0DN34 1-57) | binds | –
2 | prolyl endopeptidase-like protein (from UniProt Q8C167 1-725) | binds | –
3 | MTHFD1L (from UniProt Q3V3R1 32-977) (enzyme) | – | no binding
4 | zinc finger protein 22 (from UniProt Q9ERU3 1-237) | binds | –
5 | pentatricopeptide repeat-containing protein 1 (from UniProt Q8C2E4 1-695) | binds | –
6 | B1 | binds | –
7 | B2 | binds | –
8 | B3 | binds | –
9 | B4 | binds | –
10 | B5 | binds | –
11 | B6 | binds | –
12 | B7 | binds | –
13 | B8 | binds | –
14 | B9 | binds | –
15 | B10 | binds | –
16 | B11 | binds | –
17 | B12 | binds | –
18 | B13 | – | binds
19 | B14 | – | binds
20 | B15 | – | binds
21 | B16 | binds | –
22 | B17 | – | no binding
